# Test results from PubChem BioAssay AID504467 (National Center for Advancing Translational Sciences (NCATS), 2011).
# In all, about 330,000 compounds went through this assay and about 7,700 (2.3%) were called active. Inconclusive results, whose numbers are uncertain, are shown with a selection of clear calls. The call rests on the fitted dose curve; in most records, active means well fitted inhibition curve with a large enough effect; inconclusive means small, poorly fitted or top-dose-only effect, or effect the other way; inactive means flat fitted curve, though single readings scatter. Where the call is inconclusive, the potency comes from a doubtful curve fit.
# Test: qHTS screen for small molecules that inhibit ELG1-dependent DNA repair in human embryonic kidney (HEK293T) cells expressing luciferase-tagged ELG1; further: nearly all actives have a fitted effect of over 55% in size
# Conditions: HEK293T ELG1-luciferase reporter, luminescence, 16 h, DNA damage induced by 5-fluorouridine; series mostly up to 46.1 µM
# How it was run: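 DMSO vehicle served as the neutral condition. Each well held 2,000 cells given 5-fluorouridine plus compound; after 16 hr at 37 °C/5% CO2, ONE-Glo was added and luciferase measured 30 min later.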
# Potency means the concentration at half of the fitted maximal effect.
row,SMILES,Potency
1,CCC(=O)Nc1cccc(NC(=O)c2ccc3c(c2)OCCO3)c1,"inconclusive: 18.4 µM [activator, partial curve]"
2,CCOc1ccc2nc3c(cc2c1)CN(CCCO)C(=NCCOC)S3,"inconclusive: 11.2 µM [inhibitor, partial curve]"
3,CC(C)CCn1c(Oc2ccc(Cl)cc2)nc2c1c(=O)n(C)c(=O)n2C,active: 20.6 µM
4,CC1(C)CC(=O)C2=C(C1)N=C1SCCC(=O)N1C2c1cccc([N+](=O)[O-])c1 (stereo not given),inactive
5,CC(=O)Nc1ccc(S(=O)(=O)NCCC(=O)OCC(=O)c2cccc(Br)c2)cc1,"inconclusive: 16.4 µM [activator, single point]"
6,O=C(CSc1cn(CCNC(=O)c2c(F)cccc2F)c2ccccc12)NCC1CCCO1 (stereo not given),"inconclusive: 29.1 µM [inhibitor, single point]"
7,Cc1nc2scc(-c3ccc(C(C)(C)C)cc3)c2c(=O)n1N,"inconclusive: 29.1 µM [inhibitor, single point]"
8,CC1CCCCC1NC(=O)c1ccc(S(=O)(=O)NCC2CCCO2)cc1 (stereo not given),inactive
9,Cc1ccc2c(n1)sc1c(-c3ccccc3)c(C#N)c(N)nc12,"inconclusive: 29.1 µM [inhibitor, single point]"
10,C#Cc1ccc(CN2CCC(Oc3cc(C(=O)NC4CC4)ccc3OC)CC2)cc1,"inconclusive: 25.9 µM [inhibitor, single point]"
11,Cc1[nH]nc2c1C(c1ccsc1)C1=C(CC(C)(C)CC1=O)N2 (stereo not given),inactive
12,Cc1sc2ncn(CC(=O)NCC(=O)N3CCN(c4ccc(F)cc4)CC3)c(=O)c2c1C,inactive
13,CCOc1ccc(C(=O)NCCNC(=O)c2ccc(OCC)cc2)cc1,inactive
14,COc1ccccc1NS(=O)(=O)c1ccc(C)c(C(=O)NC2CCN(Cc3ccccc3)CC2)c1,inactive
15,Cc1cccc2nc(=S)n(C(=O)c3ccco3)n12,"inconclusive: 2.59 µM [activator, full curve]"
16,COc1ccc(NC(=O)C2=CC(c3ccc(OC)cc3)=NS(=O)(=O)N2C)cc1,inactive
17,CC(C)c1ccc(C(=O)Nc2cccnc2)cc1,"inconclusive: 4.11 µM [activator, partial curve]"
18,O=C(c1ccc(CNS(=O)(=O)c2cccc(Cl)c2)cc1)N1CCCCC1,"inconclusive: 16.4 µM [inhibitor, partial curve]"
19,CC(C)(C)c1ccc(C(=O)NNC(=O)c2cccc(Br)c2)cc1,"inconclusive: 1.16 µM [activator, single point]"
20,CC(CCCC(C)(C)O)NCc1cn[nH]c1-c1ccc2c(c1)OCO2 (stereo not given),inactive

# Given with bars between the fields: part of the list above.
row | SMILES | Potency
19 | CC(C)(C)c1ccc(C(=O)NNC(=O)c2cccc(Br)c2)cc1 | inconclusive: 1.16 µM [activator, single point]
20 | CC(CCCC(C)(C)O)NCc1cn[nH]c1-c1ccc2c(c1)OCO2 (stereo not given) | inactive
